# Where a name gives a salt, the structure may show the parent alone. This is one part of the list. Single values are uncertain, as repeats are few or missing.
# What was measured:
# Assay in all cases: reduction in cell viability relative to untreated/vehicle; higher = more growth inhibition
# Settings in all cases: 200 nM; 72 h
# M229P = tested on: M229P (parental melanoma line)
# M229R = tested on: M229R (matched melanoma line resistant to BRAF inhibitors)
# M238P = tested on: M238P (parental melanoma line)
# M238R = tested on: M238R (matched melanoma line resistant to BRAF inhibitors)
# M249P = tested on: M249P (parental melanoma line)
# M249R = tested on: M249R (matched melanoma line resistant to BRAF inhibitors)
# UACC62P = tested on: UACC62P (parental melanoma line)
# UACC62R = tested on: UACC62R (matched melanoma line resistant to BRAF inhibitors)
Compound,reduction in cell viability (M229P),reduction in cell viability (M229R),reduction in cell viability (M238P),reduction in cell viability (M238R),reduction in cell viability (M249P),reduction in cell viability (M249R),reduction in cell viability (UACC62P),reduction in cell viability (UACC62R)
Cc1cccc(Nc2ccncc2S(=O)(=O)NC(=O)NC(C)C)c1 [Torasemide],< 0%,< 0%,< 0%,< 0%,< 0%,< 0%,< 0%,< 0%
CN(C)Cc1ccc(-c2nc3cccc4c3n2CCNC4=O)cc1,< 0%,< 0%,< 0%,< 0%,< 0%,0.9%,< 0%,< 0%
CCOC(=O)CN[C@@H](C(=O)N1CC[C@H]1C(=O)NCc1ccc(/C(N)=N\O)cc1)C1CCCCC1 [Ximelagatran],< 0%,< 0%,< 0%,< 0%,< 0%,4.88%,4.92%,< 0%
Clc1ccccc1C(c1ccccc1)(c1ccccc1)n1ccnc1 [Clotrimazole],< 0%,< 0%,< 0%,< 0%,< 0%,< 0%,< 0%,< 0%
C[C@]12CC[C@@H]3c4ccc(O)cc4CC[C@H]3[C@@H]1CC[C@@H]2O [beta-Estradiol],< 0%,< 0%,< 0%,< 0%,< 0%,< 0%,< 0%,< 0%
CCNC(=O)Nc1ccc(Oc2ncnc(N)c2/C=N/OC)cc1Cl,< 0%,< 0%,< 0%,< 0%,< 0%,< 0%,15.1%,17.2%
CSc1cccc(Nc2ncc3cc(-c4c(Cl)cccc4Cl)c(=O)n(C)c3n2)c1,< 0%,4.13%,23.5%,2.92%,< 0%,< 0%,5.72%,14.1%
COc1cc(C)c(Sc2cnc(NC(=O)c3ccc(CNC(C)C(C)(C)C)cc3)s2)cc1C(=O)N1CCN(C(C)=O)CC1 (centres undefined),< 0%,< 0%,< 0%,< 0%,1.34%,< 0%,6.61%,< 0%
COc1c2occc2cc2ccc(=O)oc12 [Methoxsalen],< 0%,< 0%,< 0%,< 0%,< 0%,< 0%,1.35%,< 0%
CC(C)(O)c1cc2nc(-c3cnc(N)nc3)nc(N3CCOCC3)c2s1,< 0%,14.6%,11.6%,17.1%,< 0%,2.52%,< 0%,16.1%
CC(C)[C@H](N)C(=O)OCCOCn1cnc2c(=O)nc(N)[nH]c21 [Valaciclovir],< 0%,< 0%,< 0%,< 0%,< 0%,< 0%,< 0%,< 0%
O=C(NCC1CCCCN1)c1cc(OCC(F)(F)F)ccc1OCC(F)(F)F (centres undefined) [Flecainide],< 0%,< 0%,< 0%,< 0%,< 0%,< 0%,< 0%,< 0%
c1ccc2c(Oc3nc(Nc4ccc(N5CCOCC5)cc4)c4ncn(C5CCCCC5)c4n3)cccc2c1 [purmorphamine],< 0%,< 0%,14.6%,5.73%,< 0%,< 0%,10.9%,< 0%
CN(C)CCc1c[nH]c2ccc(CS(=O)(=O)N3CCCC3)cc12 [Almotriptan],< 0%,< 0%,< 0%,< 0%,< 0%,23.4%,< 0%,< 0%
OC(CCN1CCCCC1)(c1ccccc1)C1CC2C=CC1C2 (centres undefined) [Biperiden],< 0%,< 0%,< 0%,< 0%,< 0%,< 0%,< 0%,< 0%
C[C@@H]1C/C=C/C=C/C=C/C=C/[C@H](O[C@@H]2O[C@H](C)[C@@H](O)[C@H](N)[C@@H]2O)C[C@@H]2O[C@](O)(C[C@@H](O)C[C@H]3O[C@@H]3/C=C/C(=O)O1)C[C@H](O)[C@H]2C(=O)O,< 0%,< 0%,< 0%,< 0%,< 0%,< 0%,< 0%,< 0%
c1cc(-c2cnn3cc(-c4ccc(OCCN5CCCCC5)cc4)cnc23)ccn1 [Dorsomorphin],< 0%,< 0%,< 0%,< 0%,< 0%,< 0%,1.86%,< 0%
CCN1CCN(CC(=O)Nc2ccc(-c3cccc4c(=O)cc(N5CCOCC5)oc34)c3sc4ccccc4c23)CC1,< 0%,< 0%,< 0%,< 0%,< 0%,3.63%,5.02%,< 0%
Cc1cc(C2CCCCC2)n(O)c(=O)c1 [Ciclopirox],6.2%,15.8%,30.4%,5.7%,21.5%,38.8%,16.1%,41.3%
O=C(Nc1c[nH]nc1-c1nc2ccc(CN3CCOCC3)cc2[nH]1)NC1CC1,< 0%,20.4%,19.6%,38.3%,< 0%,< 0%,4.98%,41.2%
COc1cc2c(cc1OC)[C@@H]1Cc3ccc(OC)c(OC)c3CN1CC2 [Rotundine],< 0%,< 0%,< 0%,< 0%,< 0%,< 0%,< 0%,< 0%
Cc1cc([C@@H](C)Nc2ccccc2C(=O)O)c2nc(N3CCOCC3)cc(=O)n2c1,< 0%,< 0%,0.18%,18.9%,5.17%,< 0%,6.03%,< 0%

# Quoted from the results shown, 2 compounds:
Compound,reduction in cell viability (M229P),reduction in cell viability (M229R),reduction in cell viability (M238P),reduction in cell viability (M238R),reduction in cell viability (M249P),reduction in cell viability (M249R),reduction in cell viability (UACC62P),reduction in cell viability (UACC62R)
CN(C)Cc1ccc(-c2nc3cccc4c3n2CCNC4=O)cc1,< 0%,< 0%,< 0%,< 0%,< 0%,0.9%,< 0%,< 0%
CCOC(=O)CN[C@@H](C(=O)N1CC[C@H]1C(=O)NCc1ccc(/C(N)=N\O)cc1)C1CCCCC1 [Ximelagatran],< 0%,< 0%,< 0%,< 0%,< 0%,4.88%,4.92%,< 0%

# Next part.

Compound,reduction in cell viability (M229P),reduction in cell viability (M229R),reduction in cell viability (M238P),reduction in cell viability (M238R),reduction in cell viability (M249P),reduction in cell viability (M249R),reduction in cell viability (UACC62P),reduction in cell viability (UACC62R)
C[C@H]1O[C@@H](n2cc(F)c(=O)[nH]c2=O)[C@H](O)[C@@H]1O [Doxifluridine],< 0%,< 0%,< 0%,< 0%,< 0%,< 0%,< 0%,< 0%
Cc1cc(CS(=O)(=O)c2ccccc2)cc(OCc2ccc(CN3CCC[C@@H]3CO)cc2)c1,< 0%,< 0%,< 0%,< 0%,< 0%,< 0%,< 0%,< 0%
CCNc1cc(NC2CCC(O)CC2)nc(Nc2ccc3c(ccn3Cc3ccccc3)c2)n1 (centres undefined) [Cdk4/6 Inhibitor IV],< 0%,< 0%,< 0%,< 0%,< 0%,< 0%,< 0%,< 0%
CCc1ccc(CCOc2ccc(CC3SC(=O)NC3=O)cc2)nc1 (centres undefined) [Pioglitazone HCl],< 0%,< 0%,< 0%,< 0%,< 0%,< 0%,< 0%,< 0%
C[C@@]1(c2cc(-c3cncnc3)c(F)cc2F)CCSC(N)=N1,< 0%,< 0%,< 0%,< 0%,< 0%,< 0%,3.95%,< 0%
"Cc1c(C(=O)Nc2ccc(N3C[C@@H](C)O[C@@H](C)C3)nc2)cccc1-c1ccc(OC(F)(F)F)cc1 [LDE225 (NVP-LDE225,Erismodegib)]",< 0%,< 0%,< 0%,< 0%,< 0%,< 0%,< 0%,< 0%
CN1CCC(CNc2ccc3ncc(-c4cccc(OC(F)(F)F)c4)n3n2)CC1,< 0%,< 0%,< 0%,< 0%,< 0%,< 0%,< 0%,< 0%
CCc1ccc(/C=C2/SC(=S)NC2=O)cc1,< 0%,< 0%,< 0%,< 0%,< 0%,< 0%,< 0%,< 0%
Cc1cnc(Nc2ccc(F)cc2Cl)nc1-c1c[nH]c(C(=O)N[C@H](CO)c2cccc(Cl)c2)c1,21.6%,< 0%,26.2%,< 0%,15.6%,16.9%,53.4%,17.1%
COc1ccc(CCN(C)CCCC(C#N)(c2ccc(OC)c(OC)c2)C(C)C)cc1OC (centres undefined) [Verapamil],< 0%,< 0%,< 0%,< 0%,< 0%,< 0%,< 0%,< 0%
CO/N=C(\C(=O)N[C@@H]1C(=O)N2C(C(=O)O)=C(Cn3ccc(=N)n3CCO)CS[C@H]12)c1csc(N)n1 [Cefoselis sulfate],< 0%,< 0%,< 0%,< 0%,< 0%,< 0%,12.3%,< 0%
CN(C)c1nc(Cc2ccc(NC(=O)c3ccc4ccccc4c3)cc2)nc(Cl)c1CC(=O)O,< 0%,< 0%,< 0%,< 0%,< 0%,< 0%,< 0%,< 0%
O=C(/C=C/c1c(C(=O)O)[nH]c2cc(Cl)cc(Cl)c12)Nc1ccccc1 [Gavestinel sodium],< 0%,< 0%,< 0%,< 0%,< 0%,< 0%,< 0%,< 0%
COc1cc2c(cc1Cc1cccc(Cl)c1F)c(=O)c(C(=O)O)cn2[C@H](CO)C(C)C [Elvitegravir],< 0%,< 0%,< 0%,< 0%,< 0%,< 0%,< 0%,< 0%
Cc1cnc(C(=O)O)c[n+]1[O-] [Acipimox],< 0%,< 0%,< 0%,< 0%,< 0%,< 0%,< 0%,< 0%
COC(=O)C1=CO[C@@H](O)[C@@H]2C(CO)=CC[C@H]12 [Genipin],< 0%,< 0%,< 0%,< 0%,< 0%,< 0%,< 0%,< 0%
COc1cc(Nc2c(C#N)cnc3cc(OCCCN4CCN(C)CC4)c(OC)cc23)c(Cl)cc1Cl [Bosutinib],< 0%,< 0%,9.33%,< 0%,32.6%,11.1%,26.2%,< 0%
CCCn1c(=O)c2[nH]c(-c3cnn(Cc4cccc(C(F)(F)F)c4)c3)nc2n(CC)c1=O,< 0%,6.72%,< 0%,< 0%,< 0%,10.6%,3.24%,< 0%
C#Cc1cccc(Nc2ncnc3cc(OCCOC)c(OCCOC)cc23)c1 [Erlotinib hydrochloride],< 0%,< 0%,< 0%,< 0%,< 0%,< 0%,< 0%,< 0%
N=C(N)Nc1ccc(C(=O)Oc2ccc3cc(C(=N)N)ccc3c2)cc1 [Nafamostat mesilate],< 0%,< 0%,< 0%,< 0%,< 0%,< 0%,< 0%,< 0%
CCCCc1ccc2[nH]c(NC(=O)OC)nc2c1 [Parbendazole],33.6%,34.2%,53.4%,59.1%,62.3%,57.1%,57.4%,93.2%
